Among the data in publication PMC3836738 are binding values, retold here.

The chains behind the UniProt entries cited, without tags or fusion partners.
UniProt Q86YI8: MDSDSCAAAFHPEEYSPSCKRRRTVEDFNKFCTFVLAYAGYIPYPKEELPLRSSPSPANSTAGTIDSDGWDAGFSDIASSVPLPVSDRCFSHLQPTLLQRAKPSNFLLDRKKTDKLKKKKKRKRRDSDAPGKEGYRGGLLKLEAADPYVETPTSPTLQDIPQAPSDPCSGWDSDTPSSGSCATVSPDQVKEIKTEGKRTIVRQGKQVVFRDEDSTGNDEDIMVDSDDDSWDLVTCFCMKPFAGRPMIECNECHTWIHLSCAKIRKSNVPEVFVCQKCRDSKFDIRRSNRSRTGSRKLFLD

Experiment [1] deals with T1, SPOC1 (survival-time associated PHD protein in ovarian cancer 1/PHF13), endogenous (human (endogenous in H1299)), Q86YI8. Description: co-IP; H1299 cells transfected with empty plasmid or pE1B-55K-wt; total cell extracts 24 h after transfection; precipitated with rabbit polyclonal SPOC1 antibody, blot with 2A6 (E1B-55K). Particulars: remark: other sources report otherwise.

The target in experiment [2] is SPOC1, exogenous, doxycyclin-induced in stably transfected DLD1 and U2OS cells (human), Q86YI8. Description: co-IP; DLD1 and U2OS cells with doxycyclin-induced SPOC1, infected with H5pg4100, H5pm4149 or H5pm4154 at 50 FFU per cell; total cell extracts 24 h post infection; precipitated with rabbit polyclonal SPOC1 antibody, blot with 2A6 (E1B-55K) and B6-8 (E2A/DBP). Particulars: remark: other sources report otherwise.

The target in experiment [3] is T1, SPOC1 (survival-time associated PHD …). Description: co-IP; H1299 cells infected with H5pg4100, H5pm4149 or H5pm4154 at 50 FFU per cell; total cell extracts 24 and 48 h post infection; precipitated with rabbit polyclonal SPOC1 antibody, blot with 2A6 (E1B-55K) and B6-8 (E2A/DBP). Particulars: remark: other sources report otherwise.
Experiment [4] has as its target SPOC1 (survival-time associated PHD protein in ovarian cancer 1/PHF13), endogenous (human (endogenous in H1299)) (UniProt Q86YI8). Description: co-IP; H1299 cells transfected with pVII expression constructs (ppVII, pVII) or infected with H5pg4100 at 50 FFU per cell; total cell extracts 24 h after transfection or infection; precipitated with rabbit polyclonal SPOC1 antibody, blot with 3F10 (HA) and pVII antibody.

Results are given in words; binding and its absence hold for the method and conditions named. Binding seen in cells or lysates may run through a third protein. Some results given as binding are weak or reduced against the parent protein; the word gives no strength. For some of these results: Where a sequence is shown, tags or fusion partners need not be part of it.

B1: Ad5 E1B-55K (early region 1B 55 kDa protein), wild type, expressed from a pcDNA3-derived plasmid, P03243 1-496 (protein)
chain: MERRNPSERGVPAGFSGHASVESGCETQESPATVVFRPPGDNTDGGAAAAAGGSQAAAAGAEPMEPESRPGPSGMNVVQVAELYPELRRILTITEDGQGLKGVKRERGACEATEEARNLAFSLMTRHRPECITFQQIKDNCANELDLLAQKYSIEQLTTYWLQPGDDFEEAIRVYAKVALRPDCKYKISKLVNIRNCCYISGNGAEVEIDTEDRVAFRCSMINMWPGVLGMDGVVIMNVRFTGPNFSGTVFLANTNLILHGVSFYGFNNTCVEAWTDVRVRGCAFYCCWKGVVCRPKSRASIKKCLFERCTLGILSEGNSRVRHNVASDCGCFMLVKSVAVIKHNMVCGNCEDRASQMLTCSDGNCHLLKTIHVASHSRKAWPVFEHNILTRCSLHLGNRRGVFLPYQCNLSHTKILLEPESMSKVNLNGVFDMTMKIWKVLRYDETRTRCRPCECGGKHIRNQPVMLDVTEELRPDHLVLACTRAEFGSSDEDTD
For B1, the binding result in experiment [1] is recorded as “binds”.

B2: Ad5 E1B-55K expressed in virus-infected cells, P03243 1-496 (protein)
chain: B1 chain
On to B2, for which the binding result in experiment [2] and in experiment [3] was “binds” throughout.

B3: Ad core protein VII, precursor form (ppVII: prepVII), HA-tagged, transfected (protein, UniProt P68951 1-198)
chain: MSILISPSNNTGWGLRFPSKMFGGAKKRSDQHPVRVRGHYRAPWGAHKRGRTGRTTVDDAIDAVVEEARNYTPTPPPVSTVDAAIQTVVRGARRYAKMKRRRRRVARRHRRRPGTAAQRAAAALLNRARRTGRRAAMRAARRLAAGIVTVPPRSRRRAAAAAAAAISAMTQGRRGNVYWVRDSVSGLRVPVRTRPPRN
On to B3, for which, in experiment [4], the binding entry is recorded as “binds”.
